# Literature values as cited in patent publication US20220362239A1, “PHARMACEUTICAL COMPOSITION AND METHOD FOR TREATMENT OF ACUTE RESPIRATORY DISTRESS SYNDROME (ARDS) IN CORONAVIRUS DISEASE (COVID-19)” (PHARMAZZ, INC., priority 2021, published 2022).
# At least one compound was matched to its structure with a doubt left.
# Columns and labels:
# [1] = test system: patients hospitalized with confirmed COVID-19; settings: cited from earlier work
# [2] = test system: SARS-CoV-2; settings: cited from earlier work
smiles,measurement,setting,value
CCC(CC)COC(=O)[C@H](C)N[P@](=O)(OC[C@H]1O[C@@](C#N)(c2ccc3c(N)ncnn23)[C@H](O)[C@@H]1O)Oc1ccccc1 [remdesivir],patients who died,[1]; 7 of the 53 patients,13%
same,patients with clinical improvement,[1]; 36 of 53 patients,68%
same,inhibition of SARS-CoV-2 in vitro,[2],effectively inhibit
